Results: paper PMC6465248
No constants are given. Whether binding was seen depends on the method and setting. Binding seen in cells or lysates may run through a third protein. Some entries that bind do so weakly or less than the wild type.

Key:
[1] = biological target: T1, nuclear factor erythroid 2-related factor 2 (Nrf2) (human (endogenous in HT-29 and SNU-407 colon cancer cells)) (UniProt Q16236); experiment: co-IP; nuclear fraction lysates of colon cancer cells, untreated or treated with 30 uM luteolin, incubated overnight at 4 °C with Nrf2, p53 or IgG antibody; protein A/G PLUS-beads; Western blot for Nrf2 and p53
T1 sequence: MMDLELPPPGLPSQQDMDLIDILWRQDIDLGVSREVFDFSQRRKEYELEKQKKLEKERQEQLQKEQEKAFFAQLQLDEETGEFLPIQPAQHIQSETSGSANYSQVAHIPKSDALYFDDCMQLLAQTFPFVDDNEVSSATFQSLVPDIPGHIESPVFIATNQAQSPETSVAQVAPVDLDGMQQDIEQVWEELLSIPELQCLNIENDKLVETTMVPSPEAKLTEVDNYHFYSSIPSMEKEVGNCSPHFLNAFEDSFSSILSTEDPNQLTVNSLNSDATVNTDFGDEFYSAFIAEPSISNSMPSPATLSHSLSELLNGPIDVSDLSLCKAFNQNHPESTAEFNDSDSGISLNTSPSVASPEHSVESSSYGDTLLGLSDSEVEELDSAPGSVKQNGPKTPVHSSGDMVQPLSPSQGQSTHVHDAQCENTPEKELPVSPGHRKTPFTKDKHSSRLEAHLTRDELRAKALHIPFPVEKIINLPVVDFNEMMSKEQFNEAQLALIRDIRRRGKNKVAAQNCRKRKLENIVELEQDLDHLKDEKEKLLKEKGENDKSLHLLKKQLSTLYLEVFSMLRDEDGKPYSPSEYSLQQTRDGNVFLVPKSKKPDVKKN

[2] = biological target: T1, nuclear factor erythroid 2-related factor 2 (Nrf2) (human (endogenous in HT-29 and SNU-407 colon cancer cells)); experiment: proximity ligation; Duolink kit on fixed, permeabilised colon cancer cells, untreated or treated with 30 uM luteolin; rabbit anti-Nrf2 and mouse anti-p53 primary antibodies

binding [1]: binds
binding [2]: binds
Substance: p53, a tumor suppressor (from UniProt P04637 1-393)
